Laboratory results published in article PMC7778533.
No constants are given. Whether binding was seen depends on the method and setting. Binding seen in cells or lysates may run through a third protein. Some entries that bind do so weakly or less than the wild type.

T1: TGF-β type I receptor (human (endogenous in A549 and H1299)) (UniProt P36897)
T1 sequence: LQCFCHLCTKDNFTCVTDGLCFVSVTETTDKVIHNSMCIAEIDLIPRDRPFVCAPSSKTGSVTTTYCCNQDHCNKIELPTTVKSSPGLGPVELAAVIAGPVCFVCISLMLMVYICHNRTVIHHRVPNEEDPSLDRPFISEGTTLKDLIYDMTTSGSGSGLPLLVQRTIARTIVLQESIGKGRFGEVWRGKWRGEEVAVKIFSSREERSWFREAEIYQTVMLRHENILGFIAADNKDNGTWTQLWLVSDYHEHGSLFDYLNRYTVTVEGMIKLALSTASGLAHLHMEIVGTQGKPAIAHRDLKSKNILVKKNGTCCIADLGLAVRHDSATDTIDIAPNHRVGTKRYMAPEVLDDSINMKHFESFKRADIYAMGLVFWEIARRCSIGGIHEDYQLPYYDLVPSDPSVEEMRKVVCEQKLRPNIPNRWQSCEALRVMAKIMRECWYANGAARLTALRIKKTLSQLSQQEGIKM


Target: T1, TGF-β type I receptor (human (endogenous in A549 and H1299))
Experiment: co-IP; Pierce Co-IP Kit; 8 μg TβRI antibody coupled with the resin; 500 μg whole-cell lysate of A549 (pIRES-NC or pIRES-NgBR) or H1299 (shNC or shNgBR) cells, overnight at 4°C; eluate blotted for TβRI and NgBR

Row | Binder | binding
1 | Nogo-B receptor (protein, UniProt Q96E22 1-293) MTGLYELVWRVLHALLCLHRTLTSWLRVRFGTWNWIWRRCCRAASAAVLAPLGFTLRKPPAVGRNRRHHRHPRGGSCLAAAHHRMRWRADGRSLEKLPVHMGLVITEVEQEPSFSDIASLVVWCMAVGISYISVYDHQGIFKRNNSRLMDEILKQQQELLGLDCSKYSPEFANSNDKDDQVLNCHLAVKVLSPEDGKADIVRAAQDFCQLVAQKQKRPTDLDVDTLASLLSSNGCPDPDLVLKFGPVDSTLGFLPWHIRLTEIVSLPSHLNISYEDFFSALRQYAACEQRLGK | binds
2 | Nogo-B receptor overexpressed from the pIRES-NgBR plasmid (protein, UniProt Q96E22 1-293) MTGLYELVWRVLHALLCLHRTLTSWLRVRFGTWNWIWRRCCRAASAAVLAPLGFTLRKPPAVGRNRRHHRHPRGGSCLAAAHHRMRWRADGRSLEKLPVHMGLVITEVEQEPSFSDIASLVVWCMAVGISYISVYDHQGIFKRNNSRLMDEILKQQQELLGLDCSKYSPEFANSNDKDDQVLNCHLAVKVLSPEDGKADIVRAAQDFCQLVAQKQKRPTDLDVDTLASLLSSNGCPDPDLVLKFGPVDSTLGFLPWHIRLTEIVSLPSHLNISYEDFFSALRQYAACEQRLGK | binds
